The test system of the series is PABF (lambda900 C-terminal fragment, beta-galactosidase fusion, ~130 kDa) (Nicotiana tabacum). Kind of series: binding assay. To be noted: plaque filter binding, protein in a lysate after overexpression.
[1] abbreviates: letters built from the parent sequence and the stated change.

Construct, isoform or probe ends are uncertain for at least one entry. At least one result comes from cells or an extract, where the contact may be indirect. A negative result means that nothing was seen under these conditions.

As to “TGCAGGTGTTGCACGTGATACTCACCTACCCTGCA (double strand) [G-box]”, under setting [1], the binding result is given as “no binding”.
Turning to “CTTGTCATTATTTCTCCACCAACCCCCTTCACTTCCC (double strand)”, the binding result under setting [1] is “no binding”.
For “AATTAATTAATTAATTAATTAATTAATTAATTAATTAATTAATTAATTAATT (double strand) [PAs (AATT)13]”, the binding result is recorded as “binds”.
As for “CGACTCACCTACCTGACATGCTACGCAGCG (double strand) [H-box]”, under setting [1], the binding result was “no binding”.
Turning to “CATAAGGATTAGGAATTTAATTTCGTAG (double strand) [PF]”, the binding result under setting [1] is given as “no binding”.

The values are drawn from US6191258.
